At least one compound was matched to its structure with a doubt left. Some of these results come from one statement about several compounds together.
Assays:
[1] = tested on: P. berghei; experiment: 1-day Peters test against P. berghei in vivo; conditions: ranking among trioxolanes and controls
[2] = tested on: ANKA strain of P. Berghei; experiment: single dose STI in vivo screen in infected Moro SPF mice; conditions: single 10 mg/kg po
Protocol: In the single dose STI in vivo screen, Moro SPF mice infected with the ANKA strain of P. Berghei (groups of three mice) were treated on day one post-infection with trioxolanes dissolved or suspended in 3% ethanol and 7% Tween 80. […] Antimalarial activity was measured by percent redution in parasitemia on day three post-infection and survival times compared to an untreated control group. Survival to day 30 post-infection is considered to be a cure.

[3] = tested on: chloroquine-resistant K1 strain of P. falciparum; experiment: in vitro screen against chloroquine-resistant K1 strain of P. falciparum; assay type: cell-based; conditions: K1 and NF54 strains not distinguished

Row | SMILES | oral activity based on po ED50/ED90 values [1] | Survival (days) po [2] | IC50 [3]
1 | CO[C@H]1O[C@@H]2O[C@@]3(C)CC[C@H]4[C@H](C)CC[C@@H]([C@H]1C)[C@@]24OO3 [Artemether, artemether, reference compound] | only slightly less orally active than OZ11 | – | –
2 | CC(C)(C)ON=C1CCC2(CC1)OOC1(O2)C2CC3CC(C2)CC1C3 (stereo not shown) [OZ28, Adamantane-2-spiro-3′-8′-t-butyloxyimino-1′,2′,4′-trioxaspiro[4.5]decane] | – | > 7 days | < 5 ng/mL
3 | c1ccc2c(c1)COC1(CCC3(CC1)OOC1(O3)C3CC4CC(C3)CC1C4)OC2 (stereo not shown) [OZ31, Adamantane-2-spiro-3′-11′,12′-benzo-1′,2′,4′, 9′,14′-pentaoxadispiro[4.2.6.2]hexadecane] | – | > 7 days | < 5 ng/mL
4 | OC1CCC2(CC1)OOC1(O2)C2CC3CC(C2)CC1C3 (stereo not shown) [OZ32, Adamantane-2-spiro-3′-8′-hydroxy-1′,2′,4′-trioxaspiro[4.5]decane] | – | – | < 5 ng/mL
5 | CC1(C)CCC2(CC1)OOC1(O2)C2CC3CC(C2)CC1C3 (stereo not shown) [OZ33, Adamantane-2-spiro-3′-8′,8′-dimethyl-1′,2′,4′-trioxaspiro[4.5]decane] | – | – | < 5 ng/mL
6 | CC(C)(C)OC(=O)N1CCC2(CC1)OOC1(O2)C2CC3CC(C2)CC1C3 (stereo not shown) [OZ35, Adamantane-2-spiro-3′-8′-t-butoxycarbonyl-1′,2′,4′-trioxa-8′-azaspiro[4.5]decane] | – | – | < 5 ng/mL
7 | CON=C1CC2CC3(CC2C1)OOC1(O3)C2CC3CC(C2)CC1C3 (stereo not drawn) [OZ37, Adamantane-2-spiro-3′-1′,2′,4′-trioxolane-5′-spiro-3″-7″-methoxyimino-cis-bicyclo[3.3.0]octane] | – | – | < 2 ng/mL
8 | O=C1c2ccccc2C(=O)N1N=C1CCC2(CC1)OOC1(O2)C2CC3CC(C2)CC1C3 (stereo not shown) [OZ38, Adamantane-2-spiro-3′-8′-(N-phthalimido)imino-1′,2′,4′-trioxaspiro[4.5]decane] | – | – | < 2 ng/mL

Reference: patent US6486199B1, “Spiro and dispiro 1,2,4-trioxolane antimalarials” (Medicines for Malaria Venture MMV International Centre …, priority 2001, dated 2002)
